Data as given in PubChem BioAssay AID1259254 (NCATS, 2017).
This is a random part of about 59,000 reagents tested. Of all reagents, about 1,550 (2.6%) got an active call. 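G2 share is only a proxy for re-replication; each gene was hit by three separate siRNAs, and active genes were retested.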 The numbers tell different reagents against one gene apart. Further read-outs or replicates are left out here. The record does not give: the amount of reagent.

- Aim: 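Gene knock-downs that lead to re-replication, shown by excess G2 DNA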 (primary screen)
- Cell system: human HCT116 colorectal cancer cells
- Reagents: single siRNA against human genes
- Time to read-out: 3 days
- Measurement: 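Nuclei stained with Hoechst and imaged; cell-cycle phase assigned by DNA content; G2 share scaled per plate, non-targeting siRNA 0%, GMNN siRNA 100%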
- Scale: G2 robust z-score: higher = more G2 cells, more excess DNA replication
- Rule for the call: 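An siRNA counts as active if its G2 robust z-score lies at least 5 MADs above the screen median; here such calls match roughly 38% of GMNN control or more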

G2 robust z-score, by target gene and reagent
KCNQ2 (potassium voltage-gated channel subfamily Q member 2): #1 1.07 inactive; #2 -0.89 inactive; #3 -0.8 inactive
LRP8 (LDL receptor related protein 8): #1 1.94 inactive; #2 0.0407 inactive; #3 0.622 inactive
ZNF138 (zinc finger protein 138): #1 -0.988 inactive; #2 -0.282 inactive; #3 1.58 inactive
FAM86C2P (family with sequence similarity 86 member C2, pseudogene): #1 3.6 inactive; #2 0.405 inactive; #3 -0.53 inactive
LOC729275 (retired record): #1 0.273 inactive; #2 0.462 inactive; #3 -0.214 inactive
KLHL23 (kelch like family member 23): #1 3.92 inactive; #2 -0.0333 inactive; #3 -0.76 inactive
APOBEC3B (apolipoprotein B mRNA editing enzyme catalytic subunit 3B): #1 -0.643 inactive; #2 -0.838 inactive; #3 0.856 inactive
ZFAT (zinc finger and AT-hook domain containing): #1 -1.31 inactive; #2 0.81 inactive; #3 0.208 inactive
TIMM8A (translocase of inner mitochondrial membrane 8A): #1 -0.661 inactive; #2 0.869 inactive; #3 1.56 inactive
BRICD5 (BRICHOS domain containing 5): #1 5.43 active; #2 0.325 inactive; #3 -0.506 inactive
DNAAF1 (dynein axonemal assembly factor 1): #1 0.224 inactive; #2 -0.725 inactive; #3 0.0936 inactive
GSDMA (gasdermin A): #1 0.555 inactive; #2 0.704 inactive; #3 -0.016 inactive
API5 (apoptosis inhibitor 5): #1 -1.07 inactive; #2 -1.04 inactive; #3 0.0959 inactive

Looked up above:
BRICD5 (BRICHOS domain containing 5) #2, outcome = inactive
For “G2 robust z-score”, GSDMA (gasdermin A) #2 has 0.704
DNAAF1 (dynein axonemal assembly factor 1) #2, G2 robust z-score: -0.725
Under “outcome”, DNAAF1 (dynein axonemal assembly factor 1) #3 shows inactive
Entry of DNAAF1 (dynein axonemal assembly factor 1) #1 under “G2 robust z-score”: 0.224
For “outcome”, ZFAT (zinc finger and AT-hook domain containing) #2 is entered as inactive

Additional entries follow.
G2 robust z-score, by target gene and reagent
DSP (desmoplakin): #1 -0.959 inactive; #2 -0.206 inactive; #3 -0.076 inactive
HRC (histidine rich calcium binding protein): #1 1.81 inactive; #2 1.25 inactive; #3 1.13 inactive
PCF11 (PCF11 cleavage and polyadenylation factor subunit): #1 0.173 inactive; #2 4.81 inactive; #3 3.57 inactive
GDF6 (growth differentiation factor 6): #1 -0.119 inactive; #2 0.581 inactive; #3 -0.976 inactive
TMPRSS11E (transmembrane serine protease 11E): #1 3.25 inactive; #2 -0.867 inactive; #3 -0.605 inactive
AFDN-DT (AFDN divergent transcript): #1 0.386 inactive; #2 -0.413 inactive; #3 -0.0813 inactive
NKRF (NFKB repressing factor): #1 0.631 inactive; #2 -0.937 inactive; #3 0.0222 inactive
USP12 (ubiquitin specific peptidase 12): #1 -0.2 inactive; #2 -1.07 inactive; #3 -0.292 inactive
AHCY (adenosylhomocysteinase): #1 4.35 inactive; #2 2.12 inactive; #3 2.31 inactive
TLE1 (TLE family member 1, transcriptional corepressor): #1 -0.452 inactive; #2 -0.796 inactive; #3 0.0637 inactive
